Counter-ions that a name gives are not always drawn. The list shows a part of the results. Hit calls seldom repeat between salt and free forms of one compound.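 Kinases, fused to nanoluciferase, were expressed in K562 cells; luminescence was measured every 4 h from 2 to 18 h as percent of control (DMSO = 100%, positive control = 0%). A time point is decreased if signal falls significantly (2 sigma). Hits were called by the authors by a rule that is not shown; the count of time points alone does not decide it.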
Target: DYRK2 (UniProt Q92630)
Assay: kinase-Nluc reporter destabilization hit call (1 = scored as downregulated) (binary); higher = compound decreases kinase abundance
Settings: 2.5 µM; K562; 2-18 h

Protein sequences, listed by entry. Tags and fused reporters are not part of them. Lines headed by an entry give the natural chain unless they say otherwise; changes in a name come on top.
UniProt Q92630: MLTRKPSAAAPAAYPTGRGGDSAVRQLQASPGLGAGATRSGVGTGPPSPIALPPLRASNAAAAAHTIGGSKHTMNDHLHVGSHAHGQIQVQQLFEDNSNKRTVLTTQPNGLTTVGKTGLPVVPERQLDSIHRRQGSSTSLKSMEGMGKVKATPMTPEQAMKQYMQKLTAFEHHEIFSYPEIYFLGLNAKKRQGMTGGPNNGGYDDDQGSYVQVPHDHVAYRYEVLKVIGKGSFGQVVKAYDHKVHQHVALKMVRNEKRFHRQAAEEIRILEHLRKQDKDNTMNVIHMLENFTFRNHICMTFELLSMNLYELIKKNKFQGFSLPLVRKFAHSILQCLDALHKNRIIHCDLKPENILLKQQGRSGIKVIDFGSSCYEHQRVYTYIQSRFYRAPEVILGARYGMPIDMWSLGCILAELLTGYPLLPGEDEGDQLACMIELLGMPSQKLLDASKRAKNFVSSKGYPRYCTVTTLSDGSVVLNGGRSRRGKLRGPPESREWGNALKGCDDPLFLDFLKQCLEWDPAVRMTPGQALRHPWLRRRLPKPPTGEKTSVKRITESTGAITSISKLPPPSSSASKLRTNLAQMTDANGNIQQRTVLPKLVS

kinase-Nluc reporter destabilization hit call, inactive:
C=CC(=O)N1CCC[C@@H](n2nc(-c3ccc(Oc4ccccc4)cc3)c3c(N)ncnc32)C1 [Ibrutinib] 0
Cc1cn(-c2cc(NC(=O)c3ccc(C)c(Nc4nccc(-c5cccnc5)n4)c3)cc(C(F)(F)F)c2)cn1 [Nilotinib] 0
Cc1cc(C)n2c1C=C1C=CC(CCC(=O)NCCN3CCN(C/C=C/C(=O)N4CCCC(n5nc(-c6ccc(Oc7ccccc7)cc6)c6c(N)ncnc65)C4)CC3)=[N+]1[B-]2(F)F (stereo not given) 0
Cc1cnc(Nc2ccc(OCCN3CCCC3)cc2)nc1Nc1cccc(S(=O)(=O)NC(C)(C)C)c1 [Fedratinib (hydrochloride hydrate)] 0
C=CC(=O)Nc1cc2c(Nc3ccc(F)c(Cl)c3)ncnc2cc1OCCCN1CCOCC1 [Canertinib (dihydrochloride)] 0
O=C(Nc1cccc(Nc2nccc(Nc3cccc(C(F)(F)F)c3)n2)c1)C1CC1 [Aurora kinase inhibitor-3] 0
COc1ccc(-c2cc3nccn3c(Nc3ncccc3C(N)=O)n2)cc1OC [BAY 61-3606 (dihydrochloride)] 0
Nc1nc(Nc2ccc(S(N)(=O)=O)cc2)nn1C(=O)c1c(F)cccc1F 0
COc1cc(N2CCC(N3CCN(C)CC3)CC2)ccc1Nc1ncc(Cl)c(Nc2ccccc2S(=O)(=O)C(C)C)n1 0
COc1cc(Nc2c(C#N)cnc3cc(OCCCN4CCN(C)CC4)c(OC)cc23)c(Cl)cc1Cl [Bosutinib] 0

At a glance, part of the list above.
kinase-Nluc reporter destabilization hit call, inactive:
Cc1cc(C)n2c1C=C1C=CC(CCC(=O)NCCN3CCN(C/C=C/C(=O)N4CCCC(n5nc(-c6ccc(Oc7ccccc7)cc6)c6c(N)ncnc65)C4)CC3)=[N+]1[B-]2(F)F (stereo not given) 0
Cc1cnc(Nc2ccc(OCCN3CCCC3)cc2)nc1Nc1cccc(S(=O)(=O)NC(C)(C)C)c1 [Fedratinib (hydrochloride hydrate)] 0

— the supplement of paper PMC12823440, “Inhibitors supercharge kinase turnover through native proteolytic circuits” (Nature, 2025)
